The text below walks through data of article PMC6040738.

The chains behind the UniProt entries cited, without tags or fusion partners. Where a name states a change or a piece, a line headed by the entry shows the natural chain unless it says otherwise.
UniProt O75475: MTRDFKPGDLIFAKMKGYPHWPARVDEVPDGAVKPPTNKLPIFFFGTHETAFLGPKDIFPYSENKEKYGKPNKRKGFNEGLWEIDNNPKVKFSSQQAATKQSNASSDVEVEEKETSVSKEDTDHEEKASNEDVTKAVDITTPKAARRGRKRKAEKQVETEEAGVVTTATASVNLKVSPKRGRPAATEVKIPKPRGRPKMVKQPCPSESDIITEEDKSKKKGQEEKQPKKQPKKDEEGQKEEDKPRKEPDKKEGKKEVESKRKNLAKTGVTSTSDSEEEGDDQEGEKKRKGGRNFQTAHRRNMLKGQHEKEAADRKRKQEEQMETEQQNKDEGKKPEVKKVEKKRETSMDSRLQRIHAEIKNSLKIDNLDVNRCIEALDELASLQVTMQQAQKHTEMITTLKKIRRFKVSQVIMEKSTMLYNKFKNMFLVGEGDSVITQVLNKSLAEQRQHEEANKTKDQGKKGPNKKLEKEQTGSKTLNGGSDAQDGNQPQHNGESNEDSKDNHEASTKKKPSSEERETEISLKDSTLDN
UniProt P67809: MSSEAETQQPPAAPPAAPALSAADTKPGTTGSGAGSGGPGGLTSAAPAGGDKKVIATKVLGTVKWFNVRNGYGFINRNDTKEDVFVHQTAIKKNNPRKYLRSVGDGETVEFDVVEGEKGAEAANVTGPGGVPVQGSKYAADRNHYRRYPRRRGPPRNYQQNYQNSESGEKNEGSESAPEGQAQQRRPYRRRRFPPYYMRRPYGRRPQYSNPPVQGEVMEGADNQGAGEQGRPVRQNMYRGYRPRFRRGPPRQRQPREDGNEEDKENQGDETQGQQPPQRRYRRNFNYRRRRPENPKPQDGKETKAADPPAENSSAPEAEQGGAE

No constants are given. Whether binding was seen depends on the method and setting. For some of these results: Where a sequence is shown, tags or fusion partners need not be part of it.

Assay in all cases: AlphaScreen or HTRF; dilution series of GST-YB-1 or GST-YB-1 CSD against a fixed partner (80 nM His-IN, 2 nM JPO2-MBP, 100 nM His-TRN, His-LEDGF/p75, His-LEDGF/p52, His-Menin); the legend does not name the method, the text cites S2 Fig with the AlphaScreen assay; both purified
(In general: In Alpha technology, singlet oxygen from a donor bead excites a nearby acceptor bead.)

Test [1] deals with T1, recombinant His-Menin (UniProt O00255).
T1 sequence: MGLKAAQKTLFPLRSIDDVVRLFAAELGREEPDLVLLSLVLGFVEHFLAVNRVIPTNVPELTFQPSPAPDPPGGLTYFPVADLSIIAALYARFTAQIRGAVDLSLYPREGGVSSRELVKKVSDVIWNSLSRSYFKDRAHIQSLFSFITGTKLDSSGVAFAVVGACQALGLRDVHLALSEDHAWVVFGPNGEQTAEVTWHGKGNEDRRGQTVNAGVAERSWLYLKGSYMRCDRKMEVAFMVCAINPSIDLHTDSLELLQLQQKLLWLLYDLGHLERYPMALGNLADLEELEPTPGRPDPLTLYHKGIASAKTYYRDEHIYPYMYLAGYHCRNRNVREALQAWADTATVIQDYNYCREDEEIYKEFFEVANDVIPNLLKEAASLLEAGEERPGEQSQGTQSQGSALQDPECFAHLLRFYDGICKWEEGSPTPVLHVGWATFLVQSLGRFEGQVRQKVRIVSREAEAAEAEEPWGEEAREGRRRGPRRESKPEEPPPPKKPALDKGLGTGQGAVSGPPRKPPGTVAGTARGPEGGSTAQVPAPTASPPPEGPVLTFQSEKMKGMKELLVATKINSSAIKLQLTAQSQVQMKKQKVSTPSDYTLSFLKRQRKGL

The target in test [2] is recombinant His-LEDGF/p75 (UniProt O75475).
The target in test [3] is T2, 6xHistidine-tagged Transportin-SR2 (His-TRN) (UniProt Q9Y5L0).
T2 sequence: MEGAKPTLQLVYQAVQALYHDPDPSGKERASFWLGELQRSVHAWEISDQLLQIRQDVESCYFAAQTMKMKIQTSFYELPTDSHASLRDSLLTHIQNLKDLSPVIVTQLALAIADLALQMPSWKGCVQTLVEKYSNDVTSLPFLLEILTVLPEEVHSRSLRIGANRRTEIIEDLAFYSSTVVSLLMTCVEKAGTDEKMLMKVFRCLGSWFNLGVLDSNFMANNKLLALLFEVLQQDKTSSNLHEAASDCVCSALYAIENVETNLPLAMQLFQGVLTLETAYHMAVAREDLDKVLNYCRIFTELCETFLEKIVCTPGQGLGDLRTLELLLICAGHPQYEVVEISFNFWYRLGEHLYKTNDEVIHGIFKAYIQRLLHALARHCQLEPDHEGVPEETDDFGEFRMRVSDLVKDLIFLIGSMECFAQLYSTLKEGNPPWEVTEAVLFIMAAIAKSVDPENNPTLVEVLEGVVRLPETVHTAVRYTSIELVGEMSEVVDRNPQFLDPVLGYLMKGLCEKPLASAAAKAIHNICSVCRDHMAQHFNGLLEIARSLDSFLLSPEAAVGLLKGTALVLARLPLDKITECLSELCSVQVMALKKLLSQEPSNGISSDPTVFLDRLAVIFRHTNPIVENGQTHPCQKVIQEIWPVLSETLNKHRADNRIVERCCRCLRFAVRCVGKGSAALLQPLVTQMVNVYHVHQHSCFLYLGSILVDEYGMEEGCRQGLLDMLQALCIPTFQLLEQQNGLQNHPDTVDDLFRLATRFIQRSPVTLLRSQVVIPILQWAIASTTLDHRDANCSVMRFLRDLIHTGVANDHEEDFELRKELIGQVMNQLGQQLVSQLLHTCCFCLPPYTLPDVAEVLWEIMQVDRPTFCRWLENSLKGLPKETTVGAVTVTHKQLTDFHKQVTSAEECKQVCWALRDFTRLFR

The target of test [4] is T3, Cell division cycle-associated 7-like protein (CDCA7L/JPO2), JPO2-MBP (UniProt Q96GN5).
T3 sequence: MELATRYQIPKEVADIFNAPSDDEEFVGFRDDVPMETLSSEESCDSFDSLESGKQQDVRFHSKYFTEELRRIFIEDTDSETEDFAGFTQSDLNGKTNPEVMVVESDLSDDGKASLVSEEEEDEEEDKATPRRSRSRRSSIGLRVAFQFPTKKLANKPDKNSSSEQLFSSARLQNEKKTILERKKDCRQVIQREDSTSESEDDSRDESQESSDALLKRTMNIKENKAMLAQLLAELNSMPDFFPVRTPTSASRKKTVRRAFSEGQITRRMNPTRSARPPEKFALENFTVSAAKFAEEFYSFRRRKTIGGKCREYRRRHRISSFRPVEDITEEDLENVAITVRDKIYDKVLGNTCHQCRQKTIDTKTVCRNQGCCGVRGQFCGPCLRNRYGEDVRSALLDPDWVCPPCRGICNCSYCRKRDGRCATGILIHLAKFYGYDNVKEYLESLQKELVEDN

Take “YB-1 cold shock domain (GST-YB-1 CSD) (from UniProt P67809 61-125) (domain or fragment)”: the binding result in test [1], in test [2] and in test [3] was “no binding” throughout.

Consider “recombinant GST-YB-1 (from UniProt P67809 1-324)”, for which, in test [4], the binding entry is on record as “no binding”.
